Test results published in patent US12594349B2, “Compositions and methods for the targeting of PCSK9” (Scribe Therapeutics Inc., priority 2022, dated 2026).
Some of these results come from one statement about several compounds together.

Test system: human PCSK9 locus
Assay: Secreted PCSK9 by ELISA in Huh7 cells transfected with mRNA and gRNA
Assay type: cell-based
Conditions: Huh7, LTRP5-ADD-ZIM3 mRNA + gRNA scaffold 316 v1, 6 days post-transfection, averaged from two doses, relative to non-targeting gRNA
Experimental: To assess PCSK9 secretion, seeded Huh7 cells were transfected with mRNA encoding a catalytically-active CasX 676, dXR1, or LTRP5-ADD-ZIM3 and a gRNA with scaffold 316 and spacer targeting either the B2M or PCSK9 locus. Media supernatant was harvested at 6, 18, 36, and 87 days post-transfection to assess level of PCSK9 secretion by ELISA. Levels of PCSK9 secretion were normalized to total cell count. As an additional control, PCSK9 secretion was also measured in the media supernatant harvested from wells containing untreated, naïve cells.
The following three human hepatocyte cancer cell lines were used in this experiment: HepG2 cells, Hep3B cells, and Huh7 cells. ˜15,000 cells of each cell line were seeded per well; the next day, seeded cells were transfected with mRNA encoding a catalytically-active CasX 676, dXR1, or LTRP5-ADD-ZIM3 and a gRNA with scaffold 316 and spacer targeting either the B2M or PCSK9 locus (see Table 23 for specific spacers and sequences). Media supernatant was harvested at 4 days post-transfection to assess level of PCSK9 secretion by ELISA, and levels of PCSK9 secretion were normalized to total cell count and illustrated in FIGS. 11A-11C. Culturing of treated Huh7 cells continued, and media supernatant was harvested at 14 and 27 days post-transfection for measuring PCSK9 secretion by ELISA. As an additional experimental control, PCSK9 secretion was also measured in the media supernatant harvested from wells containing untreated, naïve cells.
To assess PCSK9 secretion, seeded Huh7 cells were co-transfected with mRNA encoding for LTRP5-ADD-ZIM3 and a gRNA with scaffold 316 and spacer targeting the PCSK9 locus using Lipofectamine™ 3000. Two doses of total RNA input at a 2:1 mass ratio of mRNA to gRNA were used for screening: 50 ng mRNA:25 ng gRNA and 25 ng mRNA:12.5 ng gRNA. Media supernatant was harvested at 6 days post-transfection to assess level of PCSK9 secretion by ELISA (Table 74). Levels of PCSK9 secretion were normalized to total cell count. As an additional control, PCSK9 secretion was also measured in the media supernatant harvested from cells transfected with mRNA encoding for mScarlet.

Row | Substance | average reduction in secreted PCSK9 levels
1 | AGGGAUUUAUACUACAAAGA (chemistry not given here) [Spacer 6.138] | > 65%
2 | GAGGAGGACGGCCUGGCCGA (chemistry not given here) [Spacer 6.1] | > 65%
3 | GGGUCUGAGCCUGGAGGAGU (chemistry not given here) [Spacer 6.157] | > 65%
4 | TG-06-124 (guide CAGUAUCGACAGCCCUUCCA; listed as RNA, chemistry not given here) | > 65%
5 | TG-06-139 (guide AGGAGCAGCUAGUUGGUAAG; listed as RNA, chemistry not given here) | > 65%
6 | TG-06-144 (guide GUGGGCAGCGAGGAGUCCAC; listed as RNA, chemistry not given here) | > 65%
7 | TG-06-145 (guide UGGGUCCACCUUGUCUCCUG; listed as RNA, chemistry not given here) | > 65%
8 | TG-06-154 (guide AGGGUGUGGGUGCUUGACGC; listed as RNA, chemistry not given here) | > 65%
9 | TG-06-158 (guide GGAGCAGGGCGCGUGAAGGG; listed as RNA, chemistry not given here) | > 65%
